# Measured values taken from the supplement of paper PMC8728848.
# The list shows a part of the results.
# B1: Adiponectin (Rattus norvegicus), Q8K3R4 (protein)
# chain: MLLLQALLFLLILPSHEGITATEGPGALVPPPKETCAGWMAGIPGYPGHNGIPGRDGRDGTPGEKGEKGDAGVLGPKGDPGDAGMTGAEGPRGFPGTPGRKGEPGEAAYMYHSAFSVGLETRVTVPNVPIRFTKIFYNQQNHYDGSTGKFHCNIPGLYYFSYHITVYMKDVKVSLFKKDKAVLFTYDQYQEKNVDQASGSMLLHLEVGDQVWLQVYGEGDNNGLYADNVNDSTFTGFLLYHDTN
# Experiments:
# Assay in all cases: glycan array binding signal (z-score within array); higher = stronger binding
# Conditions in all cases: glycan notation: IUPAC condensed, linker removed
# [1] = biological target: Man(a1-2)Man(a1-2)Man(a1-6)[Man(a1-3)]Man
# Summary of the method: (§1)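 The Consortium for Functional Glycomics database supplied 3228 glycan arrays, of which those lacking an available protein sequence were dropped. The binding signal, a within-array Z-score, was averaged across arrays of the same protein sequence and across linkers. Negative scores can be read as non-binding.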
# [2] = biological target: Man(a1-2)Man(a1-3)Man
# Summary of the method: as §1
# [3] = biological target: Man(a1-2)Man(a1-3)[Man(a1-2)Man(a1-6)]Man
# Summary of the method: as §1
# [4] = biological target: Man(a1-2)Man(a1-3)[Man(a1-2)Man(a1-6)]Man(a1-6)[Man(a1-2)Man(a1-2)Man(a1-3)]Man
# Summary of the method: as §1
# [5] = biological target: Man(a1-2)Man(a1-3)[Man(a1-2)Man(a1-6)]Man(a1-6)[Man(a1-2)Man(a1-2)Man(a1-3)]Man(b1-4)GlcNAc(b1-4)GlcNAc
# Summary of the method: as §1
# [6] = biological target: Man(a1-2)Man(a1-3)[Man(a1-6)]Man(a1-6)[Man(a1-2)Man(a1-3)]Man(b1-4)GlcNAc(b1-4)GlcNAc
# Summary of the method: as §1
# [7] = biological target: Man(a1-2)Man(a1-6)[Man(a1-3)]Man(a1-6)[Man(a1-2)Man(a1-2)Man(a1-3)]Man
# Summary of the method: as §1
# [8] = biological target: Man(a1-2)Man(a1-6)[Man(a1-3)]Man(a1-6)[Man(a1-2)Man(a1-2)Man(a1-3)]Man(b1-4)GlcNAc(b1-4)GlcNAc
# Summary of the method: as §1
# [9] = biological target: Man(a1-3)[Man(a1-6)]Man
# Summary of the method: as §1
# [10] = biological target: Man(a1-3)[Man(a1-6)]Man(a1-6)[Man(a1-2)Man(a1-3)]Man(b1-4)GlcNAc(b1-4)GlcNAc
# Summary of the method: as §1
# [11] = biological target: Man(a1-3)[Man(a1-6)]Man(a1-6)[Man(a1-3)]Man
# Summary of the method: as §1
# [12] = biological target: Man(a1-3)[Man(a1-6)]Man(a1-6)[Man(a1-3)]Man(b1-4)GlcNAc(b1-4)GlcNAc
# Summary of the method: as §1
# [13] = biological target: Man(a1-3)[Man(a1-6)]Man(b1-4)GlcNAc(b1-4)GlcNAc
# Summary of the method: as §1
# [14] = biological target: Man(a1-6)Man
# Summary of the method: as §1
# [15] = biological target: Man(b1-4)GlcNAc
# Summary of the method: as §1
# [16] = biological target: Neu5Ac(a2-3)Gal
# Summary of the method: as §1
# [17] = biological target: Neu5Ac(a2-3)Gal(b1-3)GalNAc
# Summary of the method: as §1
# [18] = biological target: Neu5Ac(a2-3)Gal(b1-3)GalNAc(b1-3)Gal(a1-4)Gal(b1-4)Glc
# Summary of the method: as §1
# [19] = biological target: Neu5Ac(a2-3)Gal(b1-3)GalNAc(b1-3)Gal(b1-4)GlcNAc
# Summary of the method: as §1
# [20] = biological target: Neu5Ac(a2-3)Gal(b1-3)GalNAc(b1-4)[Neu5Ac(a2-3)]Gal(b1-4)Glc
# Summary of the method: as §1
# [21] = biological target: Neu5Ac(a2-3)Gal(b1-3)GalNAc6S
# Summary of the method: as §1
# [22] = biological target: Neu5Ac(a2-3)Gal(b1-3)GlcNAc
# Summary of the method: as §1
# [23] = biological target: Neu5Ac(a2-3)Gal(b1-3)GlcNAc(b1-3)Gal(b1-3)GlcNAc
# Summary of the method: as §1
# [24] = biological target: Neu5Ac(a2-3)Gal(b1-3)GlcNAc6S
# Summary of the method: as §1
# [25] = biological target: Neu5Ac(a2-3)Gal(b1-3)[Fuc(a1-4)]GlcNAc
# Summary of the method: as §1
# [26] = biological target: Neu5Ac(a2-3)Gal(b1-3)[Fuc(a1-4)]GlcNAc(b1-3)Gal(b1-3)[Fuc(a1-4)]GlcNAc
# Summary of the method: as §1
# [27] = biological target: Neu5Ac(a2-3)Gal(b1-3)[Fuc(a1-4)]GlcNAc(b1-3)Gal(b1-4)[Fuc(a1-3)]GlcNAc
# Summary of the method: as §1
# [28] = biological target: Neu5Ac(a2-3)Gal(b1-3)[Neu5Ac(a2-3)Gal(b1-4)]GlcNAc
# Summary of the method: as §1
# [29] = biological target: Neu5Ac(a2-3)Gal(b1-3)[Neu5Ac(a2-6)]GalNAc
# Summary of the method: as §1
# [30] = biological target: Neu5Ac(a2-3)Gal(b1-4)Glc
# Summary of the method: as §1
# [31] = biological target: Neu5Ac(a2-3)Gal(b1-4)GlcNAc
# Summary of the method: as §1
# [32] = biological target: Neu5Ac(a2-3)Gal(b1-4)GlcNAc(b1-2)Man(a1-3)[GlcNAc(b1-2)Man(b1-4)GlcNAc(b1-2)Man(a1-6)]Man(b1-4)GlcNAc(b1-4)GlcNAc
# Summary of the method: as §1
# [33] = biological target: Neu5Ac(a2-3)Gal(b1-4)GlcNAc(b1-2)Man(a1-3)[Neu5Ac(a2-6)Gal(b1-4)GlcNAc(b1-2)Man(a1-6)]Man(b1-4)GlcNAc(b1-4)GlcNAc
# Summary of the method: as §1
# [34] = biological target: Neu5Ac(a2-3)Gal(b1-4)GlcNAc(b1-3)Gal(b1-3)GlcNAc
# Summary of the method: as §1
# [35] = biological target: Neu5Ac(a2-3)Gal(b1-4)GlcNAc(b1-3)Gal(b1-4)GlcNAc
# Summary of the method: as §1
# [36] = biological target: Neu5Ac(a2-3)Gal(b1-4)GlcNAc(b1-3)Gal(b1-4)GlcNAc(b1-3)Gal(b1-4)GlcNAc
# Summary of the method: as §1
# [37] = biological target: Neu5Ac(a2-3)Gal(b1-4)GlcNAc(b1-3)Gal(b1-4)[Fuc(a1-3)]GlcNAc
# Summary of the method: as §1
# [38] = biological target: Neu5Ac(a2-3)Gal(b1-4)GlcNAc(b1-3)GalNAc
# Summary of the method: as §1
# [39] = biological target: Neu5Ac(a2-3)Gal(b1-4)GlcNAc(b1-6)[Gal(b1-3)]GalNAc
# Summary of the method: as §1
# [40] = biological target: Neu5Ac(a2-3)Gal(b1-4)GlcNAc(b1-6)[Neu5Ac(a2-3)Gal(b1-3)]GalNAc
# Summary of the method: as §1
# [41] = biological target: Neu5Ac(a2-3)Gal(b1-4)GlcNAc6S
# Summary of the method: as §1
# [42] = biological target: Neu5Ac(a2-3)Gal(b1-4)[Fuc(a1-3)]GlcNAc
# Summary of the method: as §1
# [43] = biological target: Neu5Ac(a2-3)Gal(b1-4)[Fuc(a1-3)]GlcNAc(b1-3)Gal
# Summary of the method: as §1
# [44] = biological target: Neu5Ac(a2-3)Gal(b1-4)[Fuc(a1-3)]GlcNAc(b1-3)Gal(b1-4)GlcNAc
# Summary of the method: as §1
# [45] = biological target: Neu5Ac(a2-3)Gal(b1-4)[Fuc(a1-3)]GlcNAc(b1-3)Gal(b1-4)[Fuc(a1-3)]GlcNAc(b1-3)Gal(b1-4)[Fuc(a1-3)]GlcNAc
# Summary of the method: as §1
binder,measurement,setting,value
B1,glycan array binding signal (z-score),[1],1.64
same,glycan array binding signal (z-score),[2],-0.812
same,glycan array binding signal (z-score),[3],-0.568
same,glycan array binding signal (z-score),[4],-0.03
same,glycan array binding signal (z-score),[5],0.792
same,glycan array binding signal (z-score),[6],-0.235
same,glycan array binding signal (z-score),[7],-0.065
same,glycan array binding signal (z-score),[8],-0.443
same,glycan array binding signal (z-score),[9],-0.182
same,glycan array binding signal (z-score),[10],0.494
same,glycan array binding signal (z-score),[11],-0.779
same,glycan array binding signal (z-score),[12],-0.767
same,glycan array binding signal (z-score),[13],-0.101
same,glycan array binding signal (z-score),[14],0.14
same,glycan array binding signal (z-score),[15],0.155
same,glycan array binding signal (z-score),[16],0.212
same,glycan array binding signal (z-score),[17],-0.54
same,glycan array binding signal (z-score),[18],-0.894
same,glycan array binding signal (z-score),[19],-0.141
same,glycan array binding signal (z-score),[20],-1.17
same,glycan array binding signal (z-score),[21],-0.137
same,glycan array binding signal (z-score),[22],-0.478
same,glycan array binding signal (z-score),[23],-0.468
same,glycan array binding signal (z-score),[24],0.105
same,glycan array binding signal (z-score),[25],0.479
same,glycan array binding signal (z-score),[26],-1.19
same,glycan array binding signal (z-score),[27],-0.843
same,glycan array binding signal (z-score),[28],2.28
same,glycan array binding signal (z-score),[29],0.091
same,glycan array binding signal (z-score),[30],0.152
same,glycan array binding signal (z-score),[31],-0.179
same,glycan array binding signal (z-score),[32],0.379
same,glycan array binding signal (z-score),[33],-0.409
same,glycan array binding signal (z-score),[34],0.26
same,glycan array binding signal (z-score),[35],-0.846
same,glycan array binding signal (z-score),[36],-0.87
same,glycan array binding signal (z-score),[37],-0.42
same,glycan array binding signal (z-score),[38],0.239
same,glycan array binding signal (z-score),[39],-0.442
same,glycan array binding signal (z-score),[40],-0.944
same,glycan array binding signal (z-score),[41],0.921
same,glycan array binding signal (z-score),[42],0.007
same,glycan array binding signal (z-score),[43],-0.168
same,glycan array binding signal (z-score),[44],1.83
same,glycan array binding signal (z-score),[45],-0.687

# Quoted at random: two entries already listed, in no set order.
binder,measurement,setting,value
B1,glycan array binding signal (z-score),[8],-0.443
same,glycan array binding signal (z-score),[10],0.494
